Results from US20050272637A1 (OREGON HEALTH AND SCIENCE UNIVERSITY, published 2005).
Results are given in words; binding and its absence hold for the method and conditions named. For some of these results: Binding seen in cells or lysates may run through a third protein. Some entries that bind do so weakly or less than the wild type.

Chains of the proteins cited; added tags and fusions are not shown. Lines headed by an entry give the natural chain unless they say otherwise; changes in a name come on top.
UniProt P08069: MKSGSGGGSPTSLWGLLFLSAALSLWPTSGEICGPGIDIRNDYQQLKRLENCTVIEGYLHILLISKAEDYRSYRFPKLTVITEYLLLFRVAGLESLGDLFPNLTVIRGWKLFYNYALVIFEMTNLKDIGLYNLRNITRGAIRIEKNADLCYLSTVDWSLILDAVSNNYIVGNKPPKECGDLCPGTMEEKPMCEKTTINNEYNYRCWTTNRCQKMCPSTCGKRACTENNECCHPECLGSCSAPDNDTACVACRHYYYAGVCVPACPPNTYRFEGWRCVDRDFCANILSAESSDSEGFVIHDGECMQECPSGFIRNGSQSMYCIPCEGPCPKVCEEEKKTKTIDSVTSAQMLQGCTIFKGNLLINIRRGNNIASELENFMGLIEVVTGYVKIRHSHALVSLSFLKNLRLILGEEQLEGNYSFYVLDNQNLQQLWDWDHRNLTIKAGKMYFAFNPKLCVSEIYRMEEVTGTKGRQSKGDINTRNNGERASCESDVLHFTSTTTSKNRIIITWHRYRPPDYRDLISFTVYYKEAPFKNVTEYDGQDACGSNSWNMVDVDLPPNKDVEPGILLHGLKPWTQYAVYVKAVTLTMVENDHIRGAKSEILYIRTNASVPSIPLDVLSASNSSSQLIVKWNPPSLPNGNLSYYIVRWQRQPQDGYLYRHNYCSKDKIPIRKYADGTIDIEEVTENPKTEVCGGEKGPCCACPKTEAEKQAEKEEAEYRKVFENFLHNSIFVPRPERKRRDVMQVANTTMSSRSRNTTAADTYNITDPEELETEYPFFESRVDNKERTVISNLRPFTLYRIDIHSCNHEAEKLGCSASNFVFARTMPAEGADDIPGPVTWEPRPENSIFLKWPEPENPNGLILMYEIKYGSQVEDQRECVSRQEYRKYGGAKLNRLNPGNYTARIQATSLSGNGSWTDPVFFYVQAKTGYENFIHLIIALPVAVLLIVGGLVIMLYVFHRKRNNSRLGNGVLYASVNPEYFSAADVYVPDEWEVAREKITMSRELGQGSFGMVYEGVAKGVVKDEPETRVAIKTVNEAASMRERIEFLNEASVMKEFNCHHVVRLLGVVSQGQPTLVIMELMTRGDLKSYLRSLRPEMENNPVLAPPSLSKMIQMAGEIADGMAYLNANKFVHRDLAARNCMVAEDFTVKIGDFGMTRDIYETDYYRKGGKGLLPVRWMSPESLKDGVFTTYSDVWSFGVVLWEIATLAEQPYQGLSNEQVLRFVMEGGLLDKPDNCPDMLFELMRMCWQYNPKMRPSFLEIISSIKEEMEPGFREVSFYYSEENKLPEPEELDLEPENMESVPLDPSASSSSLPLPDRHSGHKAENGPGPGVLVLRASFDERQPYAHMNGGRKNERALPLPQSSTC
UniProt P21860: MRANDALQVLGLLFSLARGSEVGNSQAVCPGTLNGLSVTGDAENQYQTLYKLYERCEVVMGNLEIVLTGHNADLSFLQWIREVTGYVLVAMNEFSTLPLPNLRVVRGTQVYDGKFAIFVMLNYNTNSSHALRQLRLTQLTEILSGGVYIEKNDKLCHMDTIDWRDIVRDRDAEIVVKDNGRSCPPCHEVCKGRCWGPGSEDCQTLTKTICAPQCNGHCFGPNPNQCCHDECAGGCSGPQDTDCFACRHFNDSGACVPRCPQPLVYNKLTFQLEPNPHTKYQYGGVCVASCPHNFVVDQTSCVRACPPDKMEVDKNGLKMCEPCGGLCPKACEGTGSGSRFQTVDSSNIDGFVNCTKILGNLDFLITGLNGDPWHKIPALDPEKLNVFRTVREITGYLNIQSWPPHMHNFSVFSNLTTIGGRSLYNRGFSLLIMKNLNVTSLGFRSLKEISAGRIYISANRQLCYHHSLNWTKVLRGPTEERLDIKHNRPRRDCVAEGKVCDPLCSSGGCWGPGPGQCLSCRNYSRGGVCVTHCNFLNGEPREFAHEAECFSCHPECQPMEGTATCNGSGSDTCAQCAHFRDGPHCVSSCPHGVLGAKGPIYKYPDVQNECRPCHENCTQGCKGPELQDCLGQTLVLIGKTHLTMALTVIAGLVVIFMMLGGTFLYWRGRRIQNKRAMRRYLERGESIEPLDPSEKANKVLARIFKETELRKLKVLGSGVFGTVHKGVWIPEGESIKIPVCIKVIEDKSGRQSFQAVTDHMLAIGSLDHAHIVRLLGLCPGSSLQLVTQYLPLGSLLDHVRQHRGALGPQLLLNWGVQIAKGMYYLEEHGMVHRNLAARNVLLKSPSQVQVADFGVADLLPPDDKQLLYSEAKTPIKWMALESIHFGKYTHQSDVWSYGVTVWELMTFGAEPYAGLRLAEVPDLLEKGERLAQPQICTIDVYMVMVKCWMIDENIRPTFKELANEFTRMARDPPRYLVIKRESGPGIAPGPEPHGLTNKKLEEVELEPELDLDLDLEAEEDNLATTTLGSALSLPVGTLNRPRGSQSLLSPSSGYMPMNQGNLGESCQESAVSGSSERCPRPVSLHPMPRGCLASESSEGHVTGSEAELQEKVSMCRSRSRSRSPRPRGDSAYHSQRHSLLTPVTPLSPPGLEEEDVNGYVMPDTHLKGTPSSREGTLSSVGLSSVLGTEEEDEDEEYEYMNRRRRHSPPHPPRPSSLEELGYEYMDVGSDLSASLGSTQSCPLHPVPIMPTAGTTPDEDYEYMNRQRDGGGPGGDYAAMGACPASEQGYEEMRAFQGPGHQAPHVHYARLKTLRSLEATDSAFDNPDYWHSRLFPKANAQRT

Assays:
[1] = molecular target: IGF-1R, insulin-like growth factor 1 receptor (human) (UniProt P08069); assay: pull-down, Western blot (FIG. 3A)
[2] = molecular target: HER-3 (erbB-3), human receptor, endogenous on MCF7 breast cancer cells (human) (UniProt P21860); assay: conclusion from the pull-down assays
[3] = molecular target: IGF-1R, insulin-like growth factor 1 receptor (human) (UniProt P08069); assay: conclusion from the pull-down assays
[4] = molecular target: HER-3 (erbB-3), human receptor, endogenous on MCF7 breast cancer cells (human) (UniProt P21860); assay: pull-down and cell ELISA (FIGS. 3A and 3B)
[5] = molecular target: IGF-1R, insulin-like growth factor 1 receptor (human) (UniProt P08069); assay: pull-down and cell ELISA (FIGS. 3A and 3B)
[6] = molecular target: HER-3 (erbB-3), human receptor, endogenous on MCF7 breast cancer cells (human) (UniProt P21860); assay: Western blot analysis of Int8 binding (FIG. 4B)
[7] = molecular target: purified (wild-type) HER-3 ectodomain expressed in stably transfected CHO cells (human) (UniProt P21860); assay: Western blot analysis of Int8 binding (FIG. 4C)
[8] = molecular target: IGF-1R, insulin-like growth factor 1 receptor (human) (UniProt P08069); assay: herstatin ELISA of Int8 bound to hIGF-1R-3T3 cells
[9] = molecular target: IGF-1R, insulin-like growth factor 1 receptor (human) (UniProt P08069); assay: pull-down and saturation binding to IGF-IR 3T3 cells
[10] = molecular target: IGF-1R, insulin-like growth factor 1 receptor (human) (UniProt P08069); assay: pull-down, Int8 on Protein S Sepharose, Western blot (FIG. 1A)
[11] = molecular target: IGF-1R, insulin-like growth factor 1 receptor (human) (UniProt P08069); assay: saturation binding to receptor-expressing cells, herstatin ELISA
[12] = molecular target: IGF-1R, insulin-like growth factor 1 receptor (human) (UniProt P08069); assay: saturation binding to IGF-IR 3T3 cells, herstatin ELISA (FIG. 1B)
[13] = molecular target: IGF-1R, insulin-like growth factor 1 receptor (human) (UniProt P08069); assay: pull-down from hIGFR-1-3T3 cell extracts, Western blot (FIG. 3A, bottom panel)

binding [1]: binds
binding [2]: binds
binding [3]: binds
binding [4]: binds
binding [5]: binds
binding [6]: binds
binding [7]: binds
binding [8]: binds
binding [9]: binds
binding [10]: binds
binding [11]: binds
binding [12]: binds
binding [13]: binds
B1: RBD Int8 polypeptide (intron 8-encoded receptor binding domain of herstatin, expressed as a bacterial peptide) (peptide)
chain: GTHSLPPRPAAVPVPLRMQPGPAHPVLSFLRPSWDLVSAFYSLPLAPLSPTSVPISPVSVGRGPDPDAHVAVDLSRYEG
notes: Purified from BL-21 bacteria; also called Int8 RBD polypeptide; Int8 peptide; not shown: pET 30 vector-encoded tags (His tag used for nickel purification, S-protein tag used for immobilisation)
